Experimental findings from PMC8968920 are described below.

Chains of the proteins cited; added tags and fusions are not shown.
UniProt Q9H4A6: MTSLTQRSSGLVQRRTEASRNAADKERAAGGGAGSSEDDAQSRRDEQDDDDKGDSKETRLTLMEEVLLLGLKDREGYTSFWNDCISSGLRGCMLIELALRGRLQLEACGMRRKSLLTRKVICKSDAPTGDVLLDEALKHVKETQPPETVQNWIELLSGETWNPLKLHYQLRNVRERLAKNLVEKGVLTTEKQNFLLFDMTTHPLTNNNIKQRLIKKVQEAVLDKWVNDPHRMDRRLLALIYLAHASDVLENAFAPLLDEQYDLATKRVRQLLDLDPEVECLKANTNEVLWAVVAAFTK
UniProt P40763: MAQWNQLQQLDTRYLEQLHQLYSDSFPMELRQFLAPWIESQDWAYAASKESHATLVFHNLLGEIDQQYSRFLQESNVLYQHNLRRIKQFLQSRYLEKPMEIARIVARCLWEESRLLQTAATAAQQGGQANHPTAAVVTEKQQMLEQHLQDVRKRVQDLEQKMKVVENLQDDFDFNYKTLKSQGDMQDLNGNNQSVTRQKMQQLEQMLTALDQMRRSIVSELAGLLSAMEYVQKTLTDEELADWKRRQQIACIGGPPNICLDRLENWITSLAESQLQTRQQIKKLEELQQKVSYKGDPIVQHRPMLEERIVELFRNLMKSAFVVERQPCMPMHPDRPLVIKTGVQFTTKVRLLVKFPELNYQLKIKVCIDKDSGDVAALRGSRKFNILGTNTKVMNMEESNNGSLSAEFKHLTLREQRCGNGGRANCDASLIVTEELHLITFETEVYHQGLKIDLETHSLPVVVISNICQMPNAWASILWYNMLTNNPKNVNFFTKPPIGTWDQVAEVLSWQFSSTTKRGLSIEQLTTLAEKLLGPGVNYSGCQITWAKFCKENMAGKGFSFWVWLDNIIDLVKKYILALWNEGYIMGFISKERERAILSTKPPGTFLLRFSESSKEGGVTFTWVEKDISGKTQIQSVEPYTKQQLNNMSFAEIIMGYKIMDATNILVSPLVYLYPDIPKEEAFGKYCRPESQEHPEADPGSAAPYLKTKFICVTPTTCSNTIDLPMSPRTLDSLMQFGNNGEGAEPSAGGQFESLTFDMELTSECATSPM

The target of the test is Flag-tagged GOLPH3 (Golgi phosphoprotein 3) (UniProt Q9H4A6). Description: co-IP; Flag-tagged GOLPH3 transiently transfected into HCT116 cells, 48 h; lysate (Cell Lysis Buffer, CST, with protease and phosphatase inhibitors) precipitated with anti-Flag magnet beads, 4°C, 4 h; western blot of the eluate.

No constants are given. Whether binding was seen depends on the method and setting. Binding seen in cells or lysates may run through a third protein. Some results given as binding are weak or reduced against the parent protein; the word gives no strength.

For the substance “p-STAT3 (Tyr705) (from UniProt P40763 1-770)”, the binding result is reported as “binds”.
To “total STAT3 (signal transducer and activator of transcription 3) (from UniProt P40763 1-770)” belongs “binds”.
